In one data set the target is T1, AC8-C2b/CaM (Homo sapiens, UniProt P0DP23).
T1 construct: made in house; host or cells: E. coli BL21-CodonPlus (DE3)-RIPL
The experiment in a line: AC8-C2b/CaM FP counterscreen assay.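 Also: fluorescence polarization of AC peptide binding to GST-CaM in HEPES buffer with KCl and 50 µM CaCl2, compound preincubated 30 min with GST-CaM, DMSO and calmidazolium as controls.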 The data set is classed as binding. Background: A counterscreen serves to expose hits that act by an unwanted route or on another target.

Another data set deals with T2, AC1-C1b/CaM (Homo sapiens, UniProt P0DP23).
T2 construct: made in house; host or cells: E. coli BL21-CodonPlus (DE3)-RIPL
The experiment in a line: AC1-C1b/CaM fluorescence polarization (FP) assay. The data set is classed as binding.

A further data set has as its target T3, AC8/CaM PPI (Homo sapiens, UniProt P0DP23).
T3 construct: confirmed as an AC1/AC8 non-selective hit against full-length AC1- and AC8-CaM in the NanoBiT assay; The hCaM residues 1–149, residues 1–1,248 of rat AC8 (rAC8); expressed in transfected cells; host or cells: HEK293T, transient transfection
Briefly: AC8/CaM NanoBiT assay in HEK293T cells. It is filed as cell-based, rat. The note with it: thapsigargin-stimulated, AUC, read-out: Nanobit: AC8-CaM IC50 (μM ± SEM).

Data set [1] can be described thus: CellTiter-Glo 2.0 cell viability assay.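 Also: luminescence read-out after 30 min compound exposure at 37 °C in HEPES-buffered HBSS, scaled to vehicle-treated cells as 100% and cell-free buffer wells as 0%.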 It is filed as cell-based. As to conditions: human, HEK293T cells, pH 7.4; at the compound's AC1/CaM NanoBiT IC50 concentration; read-out: % Viable Cells at AC1 IC50. The protocol:
Cell viability measurements were performed using a BioTek Synergy 2 plate reader luminescence mode. HEK293T cells were cultured in Gibco DMEM supplemented with 10% FBS (Gibco) and 1% Penicillin/Streptomycin at 37°C and 5% CO2. Cells were plated at 25,000 cells/well in 96-well half area plates (Corning #3885) coated with poly-d-lysine and allowed to incubate for 40–44 h. On the day of the assay, culture media was aspirated and replaced with 25 μl of 2X compound in HBSS supplemented with 20 mM HEPES pH 7.4 or 2X vehicle (HBSS supplement with 20 mM HEPES pH 7.4). After adding the compound or vehicle, the plate was incubated at 37°C for 30 min. Next, 25 μl of 2X CellTiter-Glo 2.0 reagent (Promega, Madison, WI) was added, and the plate was mixed on an orbital shaker for 30 min to induce cell lysis and equilibrate the plate to room temperature. Luminescence was then measured for 30 min to establish a stable signal. The final three luminescence values from the 30-min read were averaged and used to assess cell viability. Cell viability for tested compounds was normalized relative to vehicle (100%) and wells containing buffer with no cells (0%). Data represent the mean of three independent experiments (N = 3) ± SEM.
(In ATP-based viability assays light output follows the ATP content of the culture.)

A further data set has as its target T4, AC8-Nt/CaM (Homo sapiens, UniProt P0DP23).
T4 construct: made in house; host or cells: E. coli BL21-CodonPlus (DE3)-RIPL
The experiment in a line: AC8-Nt/CaM FP counterscreen assay.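 Also: fluorescence polarization of AC peptide binding GST-CaM in HEPES buffer with CaCl2, compound preincubated with CaM 30 min, peptide read after 2 h at room temperature in dark.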 The data set is classed as binding.

From article PMC9486168, “Protein-protein interaction-based high throughput screening for adenylyl cyclase 1 inhibitors: Design, implementation, and discovery of a novel chemotype” (Frontiers in Pharmacology, 2022) come the findings set out here.

Structures are written as SMILES.

A word on the Ki: it is a measure of affinity in units of concentration, obtained from inhibition or displacement. A low value points to a stronger hold on the target. As usually defined, the IC50 is the concentration at which inhibition is half-maximal. In the case of `CCCCCCCCCCCCCCCC[n+]1ccccc1` [Compound 10, Cetylpyridinium Cl], the Ki was found to be 5.5 µM at AC8-C2b/CaM, 5.6 µM on AC1-C1b/CaM and 5.7 µM at AC8-Nt/CaM. Also, the IC50 on AC1-C1b/CaM (AC1-CaM FP IC50, μM (95% CI), 100 nM AC1-C1b, 100 nM GST-CaM, 95% CI in brackets) was found to be 23.4 µM; at AC8/CaM PPI it was 14.4 ± 1.29 µM. Further, the “AC1-CaM FP % inhib” value at AC1-C1b/CaM (relative to 100 μM CDZ (100% inhibition), highest concentration tested) amounted to 25%. Also, the viability at 30 min in data set [1] is 96%.
